The values below come from article doi:10.1101/2020.04.20.033787 (bioRxiv, 2020).

The target in test [1] is T1, Swi4 (S. cerevisiae (endogenous in S288C BY4741 strains)) (UniProt P25302).
T1 sequence: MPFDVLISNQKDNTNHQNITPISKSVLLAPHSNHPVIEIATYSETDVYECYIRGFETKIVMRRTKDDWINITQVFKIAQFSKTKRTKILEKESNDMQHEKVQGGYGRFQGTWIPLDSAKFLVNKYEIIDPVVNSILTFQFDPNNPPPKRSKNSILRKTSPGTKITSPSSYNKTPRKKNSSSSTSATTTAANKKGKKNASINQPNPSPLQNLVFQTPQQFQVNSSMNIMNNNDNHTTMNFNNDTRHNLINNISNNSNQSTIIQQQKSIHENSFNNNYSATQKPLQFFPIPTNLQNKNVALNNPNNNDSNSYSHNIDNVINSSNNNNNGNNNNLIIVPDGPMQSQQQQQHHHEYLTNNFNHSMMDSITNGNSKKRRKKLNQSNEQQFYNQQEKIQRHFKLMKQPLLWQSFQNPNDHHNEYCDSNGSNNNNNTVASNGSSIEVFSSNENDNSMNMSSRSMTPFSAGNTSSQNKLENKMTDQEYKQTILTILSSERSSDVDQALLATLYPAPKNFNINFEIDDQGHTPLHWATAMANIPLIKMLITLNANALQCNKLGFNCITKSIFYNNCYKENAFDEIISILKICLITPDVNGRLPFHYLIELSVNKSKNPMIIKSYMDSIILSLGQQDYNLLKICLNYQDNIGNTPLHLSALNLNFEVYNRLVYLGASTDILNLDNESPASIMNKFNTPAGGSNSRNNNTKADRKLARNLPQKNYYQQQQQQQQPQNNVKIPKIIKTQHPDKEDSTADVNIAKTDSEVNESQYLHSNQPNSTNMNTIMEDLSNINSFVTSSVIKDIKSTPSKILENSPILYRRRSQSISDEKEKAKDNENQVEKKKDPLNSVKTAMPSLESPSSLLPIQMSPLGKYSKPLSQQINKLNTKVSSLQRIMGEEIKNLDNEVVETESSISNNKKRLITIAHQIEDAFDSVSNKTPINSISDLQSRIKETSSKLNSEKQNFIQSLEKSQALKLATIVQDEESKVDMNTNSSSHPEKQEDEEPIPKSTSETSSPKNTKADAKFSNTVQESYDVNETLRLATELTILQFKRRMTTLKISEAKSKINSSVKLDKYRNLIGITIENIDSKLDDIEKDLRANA
The test can be described thus: co-IP.

For test [2], the target named is T2, Swi6 (S. cerevisiae (endogenous in S288C BY4741 strains)) (UniProt P09959).
T2 sequence: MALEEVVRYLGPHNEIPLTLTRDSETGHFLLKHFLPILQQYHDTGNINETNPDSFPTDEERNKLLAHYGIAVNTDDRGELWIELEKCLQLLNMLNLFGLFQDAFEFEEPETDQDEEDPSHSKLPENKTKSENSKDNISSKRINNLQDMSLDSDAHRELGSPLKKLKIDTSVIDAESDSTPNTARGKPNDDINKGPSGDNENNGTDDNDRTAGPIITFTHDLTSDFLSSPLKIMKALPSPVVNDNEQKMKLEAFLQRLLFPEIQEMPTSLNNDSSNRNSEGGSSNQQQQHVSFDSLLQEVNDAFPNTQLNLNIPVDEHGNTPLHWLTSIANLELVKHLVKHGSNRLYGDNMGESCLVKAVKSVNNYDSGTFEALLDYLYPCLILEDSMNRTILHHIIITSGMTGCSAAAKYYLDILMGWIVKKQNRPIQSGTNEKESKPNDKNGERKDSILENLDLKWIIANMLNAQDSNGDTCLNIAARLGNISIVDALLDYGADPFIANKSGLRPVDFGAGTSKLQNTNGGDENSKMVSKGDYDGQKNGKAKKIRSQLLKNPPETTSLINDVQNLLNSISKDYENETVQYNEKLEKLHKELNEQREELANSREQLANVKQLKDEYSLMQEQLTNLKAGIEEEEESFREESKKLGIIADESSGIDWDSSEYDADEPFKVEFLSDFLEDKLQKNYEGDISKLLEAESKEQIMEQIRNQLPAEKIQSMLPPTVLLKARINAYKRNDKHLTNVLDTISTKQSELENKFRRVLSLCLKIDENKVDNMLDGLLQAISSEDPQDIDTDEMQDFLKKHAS
The test can be described thus: co-IP.

Results are given in words; binding and its absence hold for the method and conditions named. Binding seen in cells or lysates may run through a third protein.

“fast-migrating form of Nrs1^13MYC (S. cerevisiae)”: the binding entry in test [1] and in test [2] was “no binding” each time.
